Assay results as given in the supplement of paper PMC3334620.
In all, about 33,000 sequences were measured (“E-score (-0.5 to 0.5)”: median about -0.0059, highest 2% from about 0.26 on). Some of the results follow.

target: T1, Cin5 (UniProt P40917); test: PBM E-score (8-mer binding enrichment) (E-score (-0.5 to 0.5)); higher = stronger / more preferred TF binding; conditions: protein concentration: 100 nM; construct: GST-full length
T1 sequence: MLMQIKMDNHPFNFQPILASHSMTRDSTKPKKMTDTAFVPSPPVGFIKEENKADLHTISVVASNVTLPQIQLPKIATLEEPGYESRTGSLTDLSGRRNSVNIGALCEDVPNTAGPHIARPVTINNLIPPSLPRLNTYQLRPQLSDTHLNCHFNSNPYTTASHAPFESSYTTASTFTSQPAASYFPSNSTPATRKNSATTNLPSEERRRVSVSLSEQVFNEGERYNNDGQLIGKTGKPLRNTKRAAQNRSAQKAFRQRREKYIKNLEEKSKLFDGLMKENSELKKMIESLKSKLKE
Method: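 Universal 'all 10-mer' protein binding microarrays (Agilent AMADID 015681) probed with GST-tagged S. cerevisiae TFs (full-length or DBD) made by in vitro transcription/translation (PURExpress), about 100-200 nM. Bound TF was detected with fluorescent anti-GST. Each ungapped 8-mer (which stands for itself and its reverse complement) is scored by the PBM enrichment score (E-score), a modified Wilcoxon-Mann-Whitney statistic from -0.5 to +0.5, computed with the Universal PBM Analysis Suite. Scale: above 0.35 generally sequence-specific binding.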

Row | Sequence | PBM E-score
1 | CAGTGCAA | 0.0676
2 | GTTTCTAA | -0.0728
3 | CAAATTTG | 0.0968
4 | TACACCCA | 0.187
5 | GGCGTTTA | -0.0349
6 | GTTTACTA | 0.241
7 | ATGTTGAC | 0.146
8 | GAGTCTAC | -0.194
9 | CAGGGGGA | -0.337
10 | GCTTCCCA | -0.174
11 | CTATCAAC | 0.102
12 | TTAATGAA | 0.201
13 | CTATGCTA | -0.0144
14 | ATATCGAT | 0.265
15 | AAAGCTTC | -0.18
16 | GGACATCC | -0.0593
17 | CCTACACG | -0.231
18 | CCTTGCGC | -0.0397
19 | ACAGCAGA | -0.00672
20 | CCAAAGGG | -0.191
21 | ACACTGTC | -0.19
22 | ACGAAGAT | 0.116

Row | Sequence | PBM E-score
23 | GCGGAGCA | -0.059
24 | AAGCACTC | -0.0467
25 | AATTTCAC | 0.0675
26 | ACTCGTCT | 0.117
27 | ACATCTTA | -0.0269
28 | CGCATAGC | -0.165
29 | GGGAACAA | 0.0662
30 | CGAGGGAA | -0.0115
31 | CTATTGGC | -0.124
32 | GAGTGAGC | -0.00717
33 | AGTCCGCG | -0.00619
34 | AAGGTCAG | -0.178
35 | TCGGGGAA | 0.0882
36 | CCCACGAC | -0.199
37 | CGGGTTAG | -0.14
38 | AATTGAGC | 0.0103
39 | CCAACTCC | 0.0416
40 | AAGGCTAG | 0.00053
41 | CGTTGGCC | -0.273
42 | ACCCTGTA | 0.00016
43 | ACTGTACT | 0.0414
44 | ATCATGTC | 0.127

Row | Sequence | PBM E-score
45 | ATAATAGG | 0.207
46 | CAGAGGGG | -0.403
47 | CTCTATTA | 0.0158
48 | CGTTACAG | 0.108
49 | GTTACACA | 0.0266
50 | AGGGTTCA | -0.0509
51 | CTATTTTA | 0.231
52 | ATCGTTAA | 0.166
53 | CCAACAAG | -0.0134
54 | GTAATGTA | 0.0916
55 | AGTGGTCC | -0.116
56 | CCTGGTAC | -0.1
57 | AGCAAGGG | -0.0739
58 | GAGCCGGA | -0.178
59 | CTTTGTAA | 0.115
60 | AAAGAACG | 0.0795
61 | AACGTACC | -0.168
62 | ACCATTCC | 0.097
63 | ACGGACAG | -0.0736
64 | CGTAGGGA | -0.113
65 | AACTCAGC | 0.101
66 | CAATGAAA | 0.0978

4 entries from above, with tabs:
Row	Sequence	PBM E-score
19	ACAGCAGA	-0.00672
20	CCAAAGGG	-0.191
21	ACACTGTC	-0.19
22	ACGAAGAT	0.116

Next entries follow:

Row | Sequence | PBM E-score
67 | CGTTGGAA | -0.0966
68 | AGTAACCG | 0.0599
69 | CCTCCCCA | 0.0288
70 | AACATTGC | -0.141
71 | AAGCAAAC | 0.215
72 | AAGCTTCT | 0.0451
73 | AGTTTTCA | -0.0513
74 | AGGATGGG | -0.0351
75 | ATAGTGTA | 0.167
76 | GGGATACC | -0.21
77 | CACAAGAA | 0.141
78 | GATACCAC | 0.131
79 | ACGAGCTC | -0.0839
80 | TGTCTGAA | -0.0637
81 | ACGCGAGT | 0.0274
82 | CATAGCAG | -0.254
83 | GGTCGACA | -0.0979
84 | AGGTCTAG | -0.175
85 | AGATATAG | 0.149
86 | CTCACGGA | 0.00719
87 | ATTGGGAC | 0.137
88 | ACACTGCC | 0.14

Row | Sequence | PBM E-score
89 | ACAGAGGG | -0.254
90 | ATTGTATC | 0.132
91 | CCCCAGGC | -0.264
92 | ATCAACCG | 0.0693
93 | ATAATTAT | 0.341
94 | CCTCTACC | -0.068
95 | ACCTTTCT | 0.044
96 | ATAAATGC | 0.0853
97 | CTTGTGCC | -0.213
98 | GTGAATAA | 0.235
99 | ATGCTTTG | 0.00636
100 | CGTAAAAA | 0.0224
101 | AGACACAA | 0.0122
102 | AGGACCCT | -0.286
103 | TATGCATA | 0.0485
104 | TGGTTAAA | 0.0576
105 | CTCAGAGA | -0.0852
106 | CATTTAGA | -0.016
107 | ACTTTCCA | 0.205
108 | GGGATTAC | 0.264
109 | GTCATCCA | 0.201
110 | ATTCGGCC | 0.0607
